Chains of the proteins cited; added tags and fusions are not shown.
UniProt Q12834, whole entry: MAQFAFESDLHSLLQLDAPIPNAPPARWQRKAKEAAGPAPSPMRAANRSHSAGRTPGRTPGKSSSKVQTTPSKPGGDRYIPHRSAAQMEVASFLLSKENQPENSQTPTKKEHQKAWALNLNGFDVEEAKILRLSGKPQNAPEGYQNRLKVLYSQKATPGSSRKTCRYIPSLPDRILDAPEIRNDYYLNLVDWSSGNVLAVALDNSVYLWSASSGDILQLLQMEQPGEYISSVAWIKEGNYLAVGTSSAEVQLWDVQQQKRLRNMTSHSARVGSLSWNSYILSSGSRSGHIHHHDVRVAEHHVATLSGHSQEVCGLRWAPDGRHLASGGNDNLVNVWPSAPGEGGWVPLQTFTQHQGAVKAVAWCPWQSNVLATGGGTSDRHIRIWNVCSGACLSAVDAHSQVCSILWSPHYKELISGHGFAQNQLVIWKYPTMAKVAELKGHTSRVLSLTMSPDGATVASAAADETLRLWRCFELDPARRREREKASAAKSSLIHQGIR

According to publication PMC10643132, “Time-resolved cryo-EM (TR-EM) analysis of substrate polyubiquitination by the RING E3 anaphase-promoting complex/cyclosome (APC/C)” (Nature Structural & Molecular Biology, 2023):

Target: T1, CDC20 (UniProt Q12834 1-499)
T1 construct: For enzyme assays the Flag(3x) tag was removed by HRV 3C protease; for phage display an uncleavable Myc(3x)-Hexahistidine tag was used; source: baculovirus-infected insect cells, purified (anti-Flag M2 resin, ion exchange, SEC)
Test: pull-down; GST–UbV^CDH1 or GST–Ub with CDH1 or CDC20, GST pulldown, Coomassie-stained SDS–PAGE; n = 3
Conditions: both partners purified

B1: GST–UbV^CDH1 (designed binder)
chain: MQIFVKTRKGTSITLEVEPSDTIENVKAKIQDKEGIPPDQQRLRFAGKQLEDGRTLSDYNIHNASSLYLRSPLRALAG
notes: also called GST–UbV^CDH1 fusion; not shown: GST, N-terminal, kept
B1: binds.
